# Measurements reported in PubChem BioAssay AID1347076 (National Center for Advancing Translational Sciences (NCATS), 2019).
# In all, about 400,000 compounds went through this assay and about 13,000 (3.2%) were called active. Inconclusive means that the source gave no clear call. Such entries were picked first, then a sample of the others. The call rests on the fitted dose curve; in most records, active means well fitted cell-killing curve with a large enough effect; inconclusive means small, poorly fitted or top-dose-only effect, or effect the other way; inactive means flat fitted curve, though single readings scatter. Potencies of inconclusive entries are doubtful fits and often do not repeat.
# Test: qHTS assay for MDR1-selective chemotherapeutics: Primary screen using the drug-selected MDR subline cells KB-V1; further: nearly all actives have a fitted effect of over 60% in size
# Details: KB-V1 MDR cells viability, CellTiter-Glo, 72 h; activity change, negative = cytotoxicity: at 46.1 µM (top of the series)
# Outline: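 Potencies derive from concentration-effect curves fitted to normalized luminescence (CellTiter-Glo) of KB-V1 cells treated for 72 h at 37 degrees C in phenol-red-free DMEM containing 10% FBS.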
# On the % scale 0 is the no-effect control and ±100 the full control effect; potency means the concentration at half of the fitted maximal effect.
SMILES,Potency,"activity change, negative = cytotoxicity"
CCn1c(SCC(=O)N/N=C/C=C\c2ccccc2[N+](=O)[O-])nc2ccccc21,active: 7.31 µM,
CCOc1ccc(-c2nc3c(C#N)c[nH]n3c2NC2CCCC2)cc1,,inactive: 11.2%
CC(=O)c1c(C)[nH]c(C(=O)Nc2cc(S(=O)(=O)N(C)C)ccc2C)c1C,"inconclusive: 25.9 µM [cytotoxic, single point]",
Cc1ccc(-c2cc([C@H]3[C@H]4C=CC[C@@H](C)[C@@H]4C(=O)N3Cc3ccccc3)ccc2F)cc1,,inconclusive: 33.3%
CN1CCN(C(=O)c2cc3c(=O)n4ccccc4nc3s2)CC1,"inconclusive: 29.1 µM [cytotoxic, single point]",
COc1ccc(S(=O)(=O)N2CCOC2CNC(=O)C(=O)NCCc2ccc(OC)c(OC)c2)cc1C (stereo unspecified),"inconclusive: 16.4 µM [cytotoxic, single point]",
O=[N+]([O-])c1ccc(N2CCN(Cc3ccccc3)CC2)s1,"inconclusive: 0.259 µM [rising, full curve]",
COc1cccc(CCc2nc3ccccc3c(=O)n2N)c1,"inconclusive: 29.1 µM [cytotoxic, single point]",
COc1ccccc1OCCC(=O)Nc1cccc(S(=O)(=O)N2CCCCC2)c1,"inconclusive: 11.6 µM [cytotoxic, partial curve]",
COc1ccc(NS(=O)(=O)c2ccc(NC(=O)N3CCCC3)cc2)cc1,,inactive: -1.91%
CC(C)Cc1cc(C(=O)N2CCCC(C(=O)c3cc(F)ccc3F)C2)n(C)n1 (stereo unspecified),"inconclusive: 14.6 µM [cytotoxic, partial curve, poor fit]",
CC1CC(C)CN(c2oc(-c3ccccc3Cl)nc2C#N)C1 (stereo unspecified),"inconclusive: 18.4 µM [cytotoxic, single point]",
COc1ccc(C(=O)N2CCCC(c3cc(C(=O)NCc4cccnc4)no3)C2)cc1 (stereo unspecified),,inactive: -4.68%
O=C(C[n+]1ccccc1)N/N=C/c1ccccc1Cl,"inconclusive: 20.6 µM [rising, partial curve]",
Cc1nc2nc(NC(=O)c3ccco3)[nH]n2c(=O)c1C,"inconclusive: 29.1 µM [rising, partial curve, poor fit]",
Cc1nc2ccccc2cc1C(=O)Nc1ccccc1Cl,"inconclusive: 29.1 µM [cytotoxic, single point]",
O=C(COc1cc2oc(=O)c3c(c2cc1Cl)CCCC3)NCC1CCC(C(=O)O)CC1 (stereo unspecified),"inconclusive: 14.6 µM [rising, single point]",
O=C(CN(Cc1ccccc1)S(=O)(=O)c1ccc(F)cc1)NCc1cccnc1,"inconclusive: 11.6 µM [cytotoxic, partial curve, poor fit]",
Cc1ccc(Cn2c(SCC(=O)NCC3CCCO3)nc3ccsc3c2=O)cc1 (stereo unspecified),"inconclusive: 11.6 µM [cytotoxic, partial curve, poor fit]",
CCOc1ccc(N(CC(=O)Nc2ccccc2C)S(=O)(=O)c2c(C)noc2C)cc1,"inconclusive: 20.6 µM [cytotoxic, partial curve, poor fit]",
Cc1cc(=O)[nH]c(NN=C2CCC(C(C)(C)C)CC2)n1 (stereo unspecified),"inconclusive: 23.1 µM [rising, single point]",
COc1cc(C2c3c(-c4ccccc4O)n[nH]c3C(=O)N2Cc2ccncc2)ccc1O (stereo unspecified),,inactive: 14.1%

# Two entries drawn at random from those above:
SMILES,Potency,"activity change, negative = cytotoxicity"
CN1CCN(C(=O)c2cc3c(=O)n4ccccc4nc3s2)CC1,"inconclusive: 29.1 µM [cytotoxic, single point]",
COc1ccc(C(=O)N2CCCC(c3cc(C(=O)NCc4cccnc4)no3)C2)cc1 (stereo unspecified),,inactive: -4.68%

# Following part:

SMILES,Potency,"activity change, negative = cytotoxicity"
Cc1cccc(-c2nnc3n2N=C(c2ccccc2Br)CS3)c1,"inconclusive: 29.1 µM [cytotoxic, single point]",
CC1(C)Cc2c(C#N)c(N3CCOCC3)nc(Cc3ccccc3)c2CO1,"inconclusive: 20.6 µM [cytotoxic, partial curve, poor fit]",
CCOC(=O)c1c(C)n(C)c2ccc(OCC(O)Cn3nc(C)cc3C)cc12 (stereo unspecified),,inactive: -4.55%
COc1ccc(NS(=O)(=O)c2cccc(C(=O)N/N=C(\C)c3cccnc3)c2)cc1,"inconclusive: 25.9 µM [rising, partial curve, poor fit]",
CCc1ccc(-c2cc(C(F)(F)F)n3nc(C(=O)Nc4c(C)nn(Cc5ccc(F)cc5)c4C)cc3n2)s1,"inconclusive: 25.9 µM [cytotoxic, partial curve, poor fit]",
COc1ccc(-n2nc(C(=O)NCC(=O)NCCCN3CC(C)CC(C)C3)c3ccccc3c2=O)cc1Cl (stereo unspecified),"inconclusive: 20.6 µM [cytotoxic, partial curve, poor fit]",
COc1cccc(N2CCN(C(=O)CN(C)S(=O)(=O)c3ccc4c(c3)c(=O)n(C)c(=O)n4C)CC2)c1,"inconclusive: 29.1 µM [cytotoxic, single point]",
CC(C)C(c1nnnn1C1CCCCC1)N1CCc2ccccc2C1 (stereo unspecified),"inconclusive: 6.51 µM [cytotoxic, partial curve]",
CCOC(=O)CNC(=S)NN(C)C,,inactive: 24.6%
O=C(NC12CC3CC(CC(C3)C1)C2)N1CCCC(CO)C1 (stereo unspecified),"inconclusive: 29.1 µM [rising, single point]",
CN1C(=O)CSc2ccc(NC(=O)NCc3ccccc3)cc21,"inconclusive: 32.6 µM [cytotoxic, single point]",
C=CCSc1nc2ccccc2[nH]1,"inconclusive: 8.2 µM [rising, partial curve]",
CCOC(=O)c1cnc(-n2nc(C)cc2C)[nH]c1=O,,inactive: -19.8%
OC[C@@H]1CN(Cc2ccc(-c3ccccc3)cc2)C[C@H](n2cnc3c(NCc4ccco4)ncnc32)O1,"inconclusive: 20.6 µM [cytotoxic, single point]",
CC(C)c1ccc(NC(=O)CCCc2nc(-c3ccc(Cl)cc3)no2)cc1,,inactive: 2.15%
CC(=O)N1N=C(c2ccccc2)OC12CCCC2,"inconclusive: 29.1 µM [cytotoxic, single point]",
Cc1ccc2[nH]c(=O)c3cc(C(=O)NCC4CCCO4)sc3c2c1 (stereo unspecified),"inconclusive: 23.1 µM [cytotoxic, single point]",
Oc1ccc(F)c(CN2CCN(c3ncc(Cc4ccccc4)cn3)CC2)c1,"inconclusive: 18.4 µM [cytotoxic, single point]",
O=S(=O)(/C=C/c1ccccc1)N1CCN(Cc2ccccc2)CC1,"inconclusive: 18.4 µM [cytotoxic, single point]",
CC1=C(C(=O)N(C(C)C)C(C)C)CC(CC(=O)NC(c2ccccc2)c2ccccc2)C(=O)N1Cc1ccc(F)cc1 (stereo unspecified),"inconclusive: 18.4 µM [cytotoxic, single point]",
COc1ccc(-c2noc(CN(C)S(=O)(=O)c3ccccc3)n2)cc1OC,"inconclusive: 8.2 µM [cytotoxic, partial curve]",
COc1ccc(S(=O)(=O)N2CCN(C(=O)c3c(C)nn(-c4ccccc4)c3C)CC2)cc1,active: 13 µM,

SMILES,Potency,"activity change, negative = cytotoxicity"
COc1cccc(NC(=O)CSc2nc3ccc(NC(=O)c4ccco4)cc3s2)c1,"inconclusive: 32.6 µM [cytotoxic, single point]",
CN1C(C(=O)NCc2cccc(C(F)(F)F)c2)CC2Cn3c(nc4cc5ccccc5cc43)C21 (stereo unspecified),,inactive: 4.69%
CCN(CC)C(=O)CSc1nnc2nnc3cc(Cl)ccc3n12,"inconclusive: 23.1 µM [cytotoxic, partial curve]",
CCN1CC(CN(C)Cc2nc(-c3ccc(C(F)(F)F)cc3)no2)CC1=O (stereo unspecified),"inconclusive: 10.3 µM [cytotoxic, partial curve]",
COn1c(SCc2ccc(C)cc2C)nc2ccccc2c1=O,"inconclusive: 29.1 µM [cytotoxic, single point]",
CCc1ccc2oc(-c3ccc(OC)cc3)cc(=Nc3c(C)n(C)n(-c4ccccc4)c3=O)c2c1,active: 9.2 µM,
O=C(CSc1nnc(C2CC2)n1-c1ccccc1)N1CCNC1=O,"inconclusive: 25.9 µM [rising, single point]",
COc1ccc(OC)c(NC(=O)Cn2cc(C(=O)c3ccco3)c3ccccc32)c1,active: 23.1 µM,
CCCCCCSc1cc(-c2nc3ccc(Cl)cn3c2NC2CCCCC2)ccc1OC,,inactive: 25.3%
COCCCN1C(=O)c2ccc(C(=O)Nc3ccc(OC)cc3)cc2C1=O,,inactive: -8.94%
CCCn1nc(C(=O)NC2CCCCCC2)c2ccccc2c1=O,active: 5.8 µM,
O=C(NCC(=O)N(CC1CCCO1)C1(C(=O)NC2CCCC2)CCCCC1)c1ccccc1 (stereo unspecified),active: 14.6 µM,
CC1(C)CN(Cc2ccccc2)C(=O)[C@H]1CC(=O)Nc1ccc(Br)cc1,"inconclusive: 18.4 µM [cytotoxic, single point]",
N=c1nc(N)nc2n1NC(c1ccc(F)cc1)=CS2,active: 1.3 µM,
CCOc1ccc(S(=O)(=O)Oc2ccc3ccccc3c2)cc1,"inconclusive: 23.1 µM [cytotoxic, partial curve, poor fit]",
Cn1c(=O)[nH]c(=O)c2c1nc(NCCc1ccccc1)n2CC(O)COc1ccccc1 (stereo unspecified),"inconclusive: 0.411 µM [cytotoxic, full curve]",
Cn1ncc([N+](=O)[O-])c1C(=O)Nc1ccc2c(c1)OCCO2,"inconclusive: 14.6 µM [rising, single point]",
COc1cc(C2C3=C(Nc4ncnn42)c2ccccc2CC3)cc(OC)c1OC (stereo unspecified),active: 0.651 µM,
Cc1ccc(C(=O)NCC(c2ccc(F)cc2)N2CCOCC2)cc1S(=O)(=O)N1CCOCC1 (stereo unspecified),active: 20.6 µM,
Cc1c(C#N)c2ccccc2n1CC(=O)NC(C)c1ccccc1 (stereo unspecified),"inconclusive: 23.1 µM [cytotoxic, single point]",
Cc1ccc(NC(=O)c2sccc2C)nc1,"inconclusive: 10.3 µM [cytotoxic, partial curve, poor fit]",
CCN(CCNC(=O)c1ccc(C#N)cc1)c1cccc(C)c1,"inconclusive: 23.1 µM [cytotoxic, partial curve, poor fit]",
